# Assay results from PMC10962838.
# The chains behind the UniProt entries cited, without tags or fusion partners.
# UniProt P50532: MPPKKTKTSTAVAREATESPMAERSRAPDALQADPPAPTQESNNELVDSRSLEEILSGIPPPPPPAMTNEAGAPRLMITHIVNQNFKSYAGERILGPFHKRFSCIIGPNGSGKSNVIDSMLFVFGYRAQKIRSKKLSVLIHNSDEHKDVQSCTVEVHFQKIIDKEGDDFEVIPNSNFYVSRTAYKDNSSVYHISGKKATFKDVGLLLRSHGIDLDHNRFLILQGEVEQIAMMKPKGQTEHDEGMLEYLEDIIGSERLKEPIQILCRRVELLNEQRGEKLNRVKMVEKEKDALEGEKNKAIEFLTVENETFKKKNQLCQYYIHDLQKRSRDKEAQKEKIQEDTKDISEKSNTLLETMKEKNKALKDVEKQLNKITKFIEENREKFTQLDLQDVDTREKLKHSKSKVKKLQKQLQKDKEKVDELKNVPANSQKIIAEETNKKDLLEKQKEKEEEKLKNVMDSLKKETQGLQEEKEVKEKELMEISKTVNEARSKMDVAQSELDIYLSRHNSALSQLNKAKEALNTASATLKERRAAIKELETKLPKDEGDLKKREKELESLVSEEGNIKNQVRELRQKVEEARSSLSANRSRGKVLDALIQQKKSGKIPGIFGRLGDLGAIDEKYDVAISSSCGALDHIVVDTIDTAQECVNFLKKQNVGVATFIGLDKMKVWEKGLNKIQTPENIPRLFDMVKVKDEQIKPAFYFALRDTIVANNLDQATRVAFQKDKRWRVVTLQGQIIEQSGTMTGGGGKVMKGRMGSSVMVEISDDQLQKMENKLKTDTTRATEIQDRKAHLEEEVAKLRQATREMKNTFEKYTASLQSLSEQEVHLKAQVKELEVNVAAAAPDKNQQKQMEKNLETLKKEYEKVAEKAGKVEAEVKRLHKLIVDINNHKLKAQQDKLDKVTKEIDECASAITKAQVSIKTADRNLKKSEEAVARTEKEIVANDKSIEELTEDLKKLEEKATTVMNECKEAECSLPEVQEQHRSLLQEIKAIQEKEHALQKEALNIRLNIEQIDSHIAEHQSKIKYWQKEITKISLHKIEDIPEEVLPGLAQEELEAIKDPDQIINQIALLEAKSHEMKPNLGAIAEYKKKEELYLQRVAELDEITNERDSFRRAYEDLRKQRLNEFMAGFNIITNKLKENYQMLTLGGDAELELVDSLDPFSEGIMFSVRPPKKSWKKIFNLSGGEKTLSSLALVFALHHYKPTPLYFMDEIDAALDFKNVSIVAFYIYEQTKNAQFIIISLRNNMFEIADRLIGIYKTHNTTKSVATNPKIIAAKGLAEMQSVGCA
# UniProt Q9YHY6: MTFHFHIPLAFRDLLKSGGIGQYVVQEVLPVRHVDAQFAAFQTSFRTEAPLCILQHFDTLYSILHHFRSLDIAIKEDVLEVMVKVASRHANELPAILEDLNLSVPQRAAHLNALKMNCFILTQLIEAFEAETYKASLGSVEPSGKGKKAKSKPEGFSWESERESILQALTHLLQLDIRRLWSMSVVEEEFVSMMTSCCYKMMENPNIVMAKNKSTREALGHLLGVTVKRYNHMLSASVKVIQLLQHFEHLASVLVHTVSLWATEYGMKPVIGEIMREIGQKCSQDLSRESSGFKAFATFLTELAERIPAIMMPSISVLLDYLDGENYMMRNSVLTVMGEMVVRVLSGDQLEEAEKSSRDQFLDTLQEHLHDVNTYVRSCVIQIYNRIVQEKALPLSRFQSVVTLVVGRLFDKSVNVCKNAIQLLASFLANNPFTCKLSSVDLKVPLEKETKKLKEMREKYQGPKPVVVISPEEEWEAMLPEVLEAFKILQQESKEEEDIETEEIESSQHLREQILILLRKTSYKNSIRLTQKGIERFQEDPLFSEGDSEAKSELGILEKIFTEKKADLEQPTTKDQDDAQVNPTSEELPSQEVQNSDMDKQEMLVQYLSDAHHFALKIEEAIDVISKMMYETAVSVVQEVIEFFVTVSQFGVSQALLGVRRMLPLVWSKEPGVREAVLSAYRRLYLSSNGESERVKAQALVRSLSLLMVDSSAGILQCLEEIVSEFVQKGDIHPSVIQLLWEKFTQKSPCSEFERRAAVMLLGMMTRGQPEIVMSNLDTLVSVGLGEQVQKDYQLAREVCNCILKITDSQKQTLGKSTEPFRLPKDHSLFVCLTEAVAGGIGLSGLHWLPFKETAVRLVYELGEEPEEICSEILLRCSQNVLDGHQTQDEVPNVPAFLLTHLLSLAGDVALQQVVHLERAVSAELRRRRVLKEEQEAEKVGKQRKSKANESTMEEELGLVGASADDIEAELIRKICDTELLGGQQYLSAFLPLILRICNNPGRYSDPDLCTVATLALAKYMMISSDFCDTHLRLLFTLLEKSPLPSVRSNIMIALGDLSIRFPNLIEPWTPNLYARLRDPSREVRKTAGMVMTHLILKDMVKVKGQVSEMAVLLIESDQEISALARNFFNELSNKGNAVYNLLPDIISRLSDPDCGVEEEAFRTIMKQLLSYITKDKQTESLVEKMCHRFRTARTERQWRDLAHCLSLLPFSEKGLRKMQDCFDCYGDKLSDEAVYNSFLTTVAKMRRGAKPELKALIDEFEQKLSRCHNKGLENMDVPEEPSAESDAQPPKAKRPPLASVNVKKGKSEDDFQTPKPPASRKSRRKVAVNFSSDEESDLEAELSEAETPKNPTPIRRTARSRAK
# UniProt P50533: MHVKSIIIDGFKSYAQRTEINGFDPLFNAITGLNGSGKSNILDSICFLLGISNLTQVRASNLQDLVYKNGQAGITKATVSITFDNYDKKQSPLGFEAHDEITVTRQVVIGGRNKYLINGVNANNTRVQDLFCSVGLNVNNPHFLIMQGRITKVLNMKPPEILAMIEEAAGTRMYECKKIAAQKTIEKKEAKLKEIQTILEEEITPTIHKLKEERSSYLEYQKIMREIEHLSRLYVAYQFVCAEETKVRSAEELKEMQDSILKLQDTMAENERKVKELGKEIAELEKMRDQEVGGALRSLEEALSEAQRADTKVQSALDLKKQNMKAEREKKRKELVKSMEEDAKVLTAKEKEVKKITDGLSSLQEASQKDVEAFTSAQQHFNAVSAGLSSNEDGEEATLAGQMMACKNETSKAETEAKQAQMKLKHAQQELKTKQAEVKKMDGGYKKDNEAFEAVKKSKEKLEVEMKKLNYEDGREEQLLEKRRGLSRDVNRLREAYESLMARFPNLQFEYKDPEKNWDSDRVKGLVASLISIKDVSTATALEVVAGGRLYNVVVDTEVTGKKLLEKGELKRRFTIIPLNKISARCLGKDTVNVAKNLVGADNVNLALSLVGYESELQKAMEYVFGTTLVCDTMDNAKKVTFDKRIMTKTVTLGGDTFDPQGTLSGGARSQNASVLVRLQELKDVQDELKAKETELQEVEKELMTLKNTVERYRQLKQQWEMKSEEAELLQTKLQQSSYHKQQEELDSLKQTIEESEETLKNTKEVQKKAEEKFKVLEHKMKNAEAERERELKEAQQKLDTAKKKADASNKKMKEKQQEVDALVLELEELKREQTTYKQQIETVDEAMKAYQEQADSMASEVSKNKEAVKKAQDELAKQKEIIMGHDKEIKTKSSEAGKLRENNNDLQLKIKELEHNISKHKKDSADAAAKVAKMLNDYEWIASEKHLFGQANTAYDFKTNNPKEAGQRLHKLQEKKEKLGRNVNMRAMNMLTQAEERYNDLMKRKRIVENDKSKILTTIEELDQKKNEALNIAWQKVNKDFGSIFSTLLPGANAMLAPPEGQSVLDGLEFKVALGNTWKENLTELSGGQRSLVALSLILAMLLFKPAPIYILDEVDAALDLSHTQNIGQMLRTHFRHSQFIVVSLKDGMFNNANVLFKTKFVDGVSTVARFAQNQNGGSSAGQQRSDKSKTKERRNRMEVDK
# No constants are given. Whether binding was seen depends on the method and setting. Some entries that bind do so weakly or less than the wild type.
# T1: Xenopus laevis XCAP-H (Xenopus laevis) (UniProt O13067)
# T1 sequence: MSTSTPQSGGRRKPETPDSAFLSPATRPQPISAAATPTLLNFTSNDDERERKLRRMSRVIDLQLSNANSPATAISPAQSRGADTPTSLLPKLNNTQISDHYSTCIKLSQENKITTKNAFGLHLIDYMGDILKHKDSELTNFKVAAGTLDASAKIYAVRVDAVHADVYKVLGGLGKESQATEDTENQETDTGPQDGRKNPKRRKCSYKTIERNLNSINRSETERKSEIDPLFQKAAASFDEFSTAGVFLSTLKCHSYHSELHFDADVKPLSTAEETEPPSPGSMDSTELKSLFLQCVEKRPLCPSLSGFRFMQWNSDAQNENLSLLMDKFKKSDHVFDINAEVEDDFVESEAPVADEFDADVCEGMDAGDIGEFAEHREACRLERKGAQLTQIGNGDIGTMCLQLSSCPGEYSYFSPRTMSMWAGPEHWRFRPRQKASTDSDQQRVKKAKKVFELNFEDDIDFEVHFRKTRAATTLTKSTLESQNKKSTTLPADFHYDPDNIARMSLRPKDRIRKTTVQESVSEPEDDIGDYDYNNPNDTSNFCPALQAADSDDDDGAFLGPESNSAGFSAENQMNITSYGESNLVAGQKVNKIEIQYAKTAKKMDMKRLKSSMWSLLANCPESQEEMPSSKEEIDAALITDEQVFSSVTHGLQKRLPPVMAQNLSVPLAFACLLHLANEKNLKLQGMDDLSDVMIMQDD
# Target: T1, Xenopus laevis XCAP-H (Xenopus laevis)
# Assay: affinity co-purification; five condensin I subunits co-expressed in High-Five cells; purified on a Strep-Tactin column by the Twin-Strep tag of XCAP-H, then by SEC (Superose 6 increase)
row,binding,Molecule
1,binds,Xenopus laevis XCAP-C/Smc4 (from UniProt P50532 1-1290)
2,binds,Xenopus laevis XCAP-D2 (from UniProt Q9YHY6 1-1364)
3,binds,Xenopus laevis XCAP-E/Smc2 (from UniProt P50533 1-1203)
4,binds,"Xenopus laevis XCAP-G (protein, UniProt Q9YHB5 1-1034) MVKEGKAMEIKEAFDLSQKAHQNHAKLVSSLRAAYNKTEDKSIFLEEFIHFLKFPLIVYRREPAVERVMDFVAKFVTSFHNSGGENEEEADEENSPVNCLFNFLLQSHGASSMAVRFRVCQLINKLLVNLPENAQIDDDLFDKIHDAMLIRLKDRVPNVRIQAVLALARLQDPSDPDCPVSNAYVHLLENDSNPEVRRAVLTCIAPSAKSLPKIVGRTMDVKEPVRKLAYQVLSEKVHIRALTIAQRVKLLQQGLNDRSAAVKDVIQKKLIQAWLQYSEGDVLDLLHRLDVENSPEVSLSALNALFSVSPVGELVQNCKNLDERKLIPVETLTPENVLYWRALCEHLKSKGDEGEAALENILPEPAVYARYLSSYLQTLPVLSEDQRADMTKIEDLMTKEFIGQQLILTIGCLDTSEEGGRKRLLAVLQEILVMQNTPTSLISSLAELLLFVLKDDDKRIQTVAEIISELREPIVTVDNPKDAAQSRKLQLKLADVKVQLIEAKQALEDSLTNEDYSRASELKEKVKELESLKTQLIKEAEEPEMKEIRVEKNDPETLLKCLIMCNELLKHLSLSKGLGGTLNEICESLILPGITNVHPSVRNMAVLCIGCCALQNKDFARQHLPLLLQILQLDEVKVKNSALNAVFDMLLLFGMDILKSKPTNPDDSQCKAQENADEDISEQEKPGSVDENLTNEEVQEETATVNGILHLFSGFLDSEIAEIRTETAEGLVKLMFSGRLISAKLLSRLILLWYNPVTEEDTKLRHCLGVFFPIFAYSCRSNQECFAEAFLPTLQTLFNAPASSPLADVDVANVAELLVDLTRPSGLNPQNKQSQDYQAAMVHDGLAIKICNEILKDPTAPDVRIYAKALCSLELSRENSTDLLPLLDCAVEDVTDKVCERAIEKVRSQLRSGREEHRVSKETEPQVSKETEDRTNLQENEEGKQKDEANCDENTDTVKEKAARGKATKGRRKGPAAAATRRKASKAEEAEAEMERQEESQCVPVNTRPSRRAKTAALEKTKKNLSKLLNEEAN"
